Measurements reported in PubChem BioAssay AID1259267 (Sanger Institute, 2017).

Assay: 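Essential and drug-synergistic knock-downs in GP5D bowel cancer cells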 (primary screen)
Cells: human GP5D colorectal cancer cells
Reagents: siRNA pool against human genes
Challenge: anchor drugs at low dose: BYL719 1 µM, cetuximab 5 µg/ml, trametinib 10 nM, or DMSO vehicle
Detection: 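Mean replicate viability versus non-targeting pool, given as knock-down-alone robust z-score, DMSO fraction, and synergy with low-dose BYL719, cetuximab or trametinib (1 µM, 5 µg/ml, 10 nM)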
Reading the numbers: robust z-score, knock-down alone: higher = more viable cells
Active means: 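Active (essential alone) if knock-down without drug gives robust z-score under -3; drug synergy does not count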
Meaning of the calls: active = essential alone; inactive = not essential
Shown is one part, drawn at random, of 794 deposited reagents. Of all reagents, 9 (1.1%) are marked active. 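Viability capped at 1; calls reflect loss of viability from knock-down alone, not synergy with drugs.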 Unmarked entries are inactive. Further read-outs or replicates are left out here. Not stated in the record: the amount of reagent, the time to read-out.

Which result is listed for BCR [SID152154242]?
robust z-score, knock-down alone: 0.47

For CLK1 [SID152154455], what does the deposit list?
robust z-score, knock-down alone: -0.701

Which result is listed for PCBP1 [SID134316528]?
robust z-score, knock-down alone: -0.00671

What is on record for ERBB3 [SID135620617]?
robust z-score, knock-down alone: -1.26

For FLT3 [SID152150278], what was measured?
robust z-score, knock-down alone: 0.817

For CDK2 [SID56478596], what was measured?
robust z-score, knock-down alone: 0.528

With GATA3 [SID134310077], what was measured?
robust z-score, knock-down alone: -0.315

What did the screen give for STKLD1 [SID152151495]?
robust z-score, knock-down alone: -0.554

Which result is listed for BPTF [SID152156181]?
robust z-score, knock-down alone: 0.163

What is on record for SPHK2 [SID56478885]?
robust z-score, knock-down alone: -0.386

What is on record for STK36 [SID135620924]?
robust z-score, knock-down alone: 0.171

With PRKAR2A [SID152153424], what was measured?
robust z-score, knock-down alone: -0.993

Looked up above:
ERBB3 [SID135620617], robust z-score, knock-down alone → -1.26
Value of STKLD1 [SID152151495] in “robust z-score, knock-down alone”: -0.554
Result of CLK1 [SID152154455] in “robust z-score, knock-down alone”: -0.701
Entry of FLT3 [SID152150278] under “robust z-score, knock-down alone”: 0.817

Further reagents:
For CHKA [SID135621235], how do the results read?
robust z-score, knock-down alone: 0.267

What did the screen give for PDGFRB [SID152152554]?
robust z-score, knock-down alone: -0.0818

What is on record for PI4K2B [SID56479132]?
robust z-score, knock-down alone: 0.817

What is on record for CAMK1 [SID56478929]?
robust z-score, knock-down alone: -0.576

For PHKA1 [SID152155157], what does the deposit list?
robust z-score, knock-down alone: 0.747

For PGK2 [SID135621248], what does the deposit list?
robust z-score, knock-down alone: 0.369

With PRKAG2 [SID135621825], how do the results read?
robust z-score, knock-down alone: 0.817

With PIK3C2A [SID152154179], what was measured?
robust z-score, knock-down alone: -3.48 (active)

Which result is listed for EFNA5 [SID152151552]?
robust z-score, knock-down alone: 0.445

Which result is listed for CKS2 [SID56479182]?
robust z-score, knock-down alone: 0.817

How did the screen score PAK3 [SID56478716]?
robust z-score, knock-down alone: 0.425

With EFNA4 [SID134312013], what was measured?
robust z-score, knock-down alone: 0.0233

With PIP5K1C [SID134310630], what does the deposit list?
robust z-score, knock-down alone: -0.315

With STK31 [SID135620977], how do the results read?
robust z-score, knock-down alone: 0.817

With MAP3K12 [SID56478643], how do the results read?
robust z-score, knock-down alone: 0.482

What did the screen give for ZAP70 [SID56479064]?
robust z-score, knock-down alone: 0.228
